From paper doi:10.1101/2022.07.10.499475 come the findings set out here.

For this experiment, the target named is DHX9 (endogenous) (human (endogenous in GM06990 lymphoblastoid and HEK293T cells)), Q08211. The experiment in a line: co-IP. The settings on record: remark: other sources report otherwise.

No constants are given. Whether binding was seen depends on the method and setting. In cells and extracts the contact can be indirect. Some results given as binding are weak or reduced against the parent protein; the word gives no strength.

B1: Top3β, O95985 1-862 (enzyme)
chain: MKTVLMVAEKPSLAQSIAKILSRGSLSSHKGLNGACSVHEYTGTFAGQPVRFKMTSVCGHVMTLDFLGKYNKWDKVDPAELFSQAPTEKKEANPKLNMVKFLQVEGRGCDYIVLWLDCDKEGENICFEVLDAVLPVMNKAHGGEKTVFRARFSSITDTDICNAMACLGEPDHNEALSVDARQELDLRIGCAFTRFQTKYFQGKYGDLDSSLISFGPCQTPTLGFCVERHDKIQSFKPETYWVLQAKVNTDKDRSLLLDWDRVRVFDREIAQMFLNMTKLEKEAQVEATSRKEKAKQRPLALNTVEMLRVASSSLGMGPQHAMQTAERLYTQGYISYPRTETTHYPENFDLKGSLRQQANHPYWADTVKRLLAEGINRPRKGHDAGDHPPITPMKSATEAELGGDAWRLYEYITRHFIATVSHDCKYLQSTISFRIGPELFTCSGKTVLSPGFTEVMPWQSVPLEESLPTCQRGDAFPVGEVKMLEKQTNPPDYLTEAELITLMEKHGIGTDASIPVHINNICQRNYVTVESGRRLKPTNLGIVLVHGYYKIDAELVLPTIRSAVEKQLNLIAQGKADYRQVLGHTLDVFKRKFHYFVDSIAGMDELMEVSFSPLAATGKPLSRCGKCHRFMKYIQAKPSRLHCSHCDETYTLPQNGTIKLYKELRCPLDDFELVLWSSGSRGKSYPLCPYCYNHPPFRDMKKGMGCNECTHPSCQHSLSMLGIGQCVECESGVLVLDPTSGPKWKVACNKCNVVAHCFENAHRVRVSADTCSVCEAALLDVDFNKAKSPLPGDETQHMGCVFCDPVFQELVELKHAASCHPMHRGGPGRRQGRGRGRARRPPGKPNPRRPKDKMSALAAYFV
On to B1, for which the binding entry is reported as “binds”.
